# Some of the results follow. The main result of the screen is listed elsewhere. These columns were measured beside it and carry no call.
# Experiment: CCRF-CEM leukemia cell cytotoxicity, late-stage follow-up, mechanism study for HRAS target identification, Alamar Blue fluorescence, several timepoints, dry powder (AID 720617)
# Conditions: CCRF-CEM viability, measured here: 8 h treatment viability, at 35 µM, stronger effect = lower value
row,SMILES,activity change [%]
1,COc1ccc(N(C(=O)CCl)C(C(=O)NCCc2ccccc2)c2cccs2)cc1Cl (stereo not given),-10.2
2,COC(=O)c1ccc([C@@H]2c3[nH]c4ccccc4c3C[C@@H](C(=O)OC)N2C(=O)CCl)cc1,-5.09
3,CC(C)(C)OC(=O)NCCOCCOCCOc1ccc(N(C(=O)CCl)C(C(=O)NCCc2ccccc2)c2cccs2)cc1Cl (stereo not given),-13
4,C#CCCCC(=O)NCCOCCOCCOc1ccc(N(C(=O)CCl)C(C(=O)NCCc2ccccc2)c2cccs2)cc1Cl (stereo not given),-7.28
5,Cc1onc(C(=O)N2CCN(C(c3ccc(Cl)cc3)c3ccc(Cl)cc3)CC2)c1[N+](=O)[O-],-10.9

# Source: PubChem BioAssay AID720617 (Broad Institute, 2013)
